Patent US11161843B2, “Fused heterocyclic compound and composition containing same” (Sumitomo Chemical Company, Limited, priority 2017, dated 2021)
Some of these results come from one statement about several compounds together. At least one structure is not confirmed: it was looked up by name or label, or the drawing left a doubt.

Key:
[1] = test system: tobacco cutworm (Spodoptera litura); experiment: Test Example 5: treated artificial diet, tobacco cutworm larvae; type: in vivo; conditions: 500 ppm, 2 mL on 7.7 g artificial diet, fourth instar larvae, after 5 days
[2] = test system: cabbage moth (Plutella xylostella); experiment: Test Example 6: spray on cabbage seedling, cut stem and leaf, cabbage moth second instar larvae; type: in vivo; conditions: 500 ppm, spray 20 mL/seedling, after 5 days

CCS(=O)(=O)c1cc(C(F)(F)F)c2nncn2c1-c1ccc(OCC(F)(F)C(F)(F)F)cn1 [compound 3]
mortality [1]: ≥ 80%

CCS(=O)(=O)c1ccc2nncn2c1-c1ccc(OCC(F)(F)C(F)(F)F)cn1 [compound 4]
mortality [2]: ≥ 80%

CCS(=O)(=O)c1ccc2n[nH]c(=O)n2c1-c1ccc(OCC(F)(F)C(F)(F)F)cn1 [compound 1]
mortality [2]: ≥ 80%

CCS(=O)(=O)c1cc(C(F)(F)F)c2nccn2c1-c1ccc(OCC(F)(F)C(F)(F)F)cn1 [compound 6]
mortality [2]: ≥ 80%
mortality [1]: ≥ 80%
